{
  "source": "paper PMC9032790",
  "key": {"[1]": {"test_system": "1F7-RAb", "experiment": "1F7-RAb-based GICA in spiked environmental and agricultural samples", "parameters": "species or system mouse"}, "[2]": {"test_system": "1F7-RAb", "experiment": "1F7-RAb-based GICA, selectivity and sensitivity in standard solution", "type": "binding, mouse", "settings": "clothianidin standard solution"}},
  "data": [
    {"smiles": "CN/C(=N\\[N+](=O)[O-])NCc1cnc(Cl)s1", "note": "[clothianidin]", "values": [
      {"measurement": "visual LOD by GICA", "setting": "[1]; oranges", "result": "~15", "unit": "ng/g"},
      {"measurement": "visual LOD by GICA", "setting": "[1]; river water", "result": "about 5 ng/mL"},
      {"measurement": "visual LOD by GICA", "setting": "[1]; soil", "result": "~10", "unit": "ng/g"},
      {"measurement": "visual LOD by GICA", "setting": "[1]; tomatoes", "result": "~15", "unit": "ng/g"},
      {"measurement": "concentration at which the T line was invisible", "setting": "[2]", "result": "more than 10 μg/L"},
      {"measurement": "visual detection limit (LOD) by GICA", "setting": "[2]; naked eye after 10 min", "result": 2.5, "unit": "µg/L"}
    ]}
  ]
}
